Test results reported in the supplement of paper PMC10849652.
Some of the results follow.

By UniProt entry, the sequences of proteins in these tests, tags left out. Where a name states a change or a piece, a line headed by the entry shows the natural chain unless it says otherwise.
UniProt Q9HD45: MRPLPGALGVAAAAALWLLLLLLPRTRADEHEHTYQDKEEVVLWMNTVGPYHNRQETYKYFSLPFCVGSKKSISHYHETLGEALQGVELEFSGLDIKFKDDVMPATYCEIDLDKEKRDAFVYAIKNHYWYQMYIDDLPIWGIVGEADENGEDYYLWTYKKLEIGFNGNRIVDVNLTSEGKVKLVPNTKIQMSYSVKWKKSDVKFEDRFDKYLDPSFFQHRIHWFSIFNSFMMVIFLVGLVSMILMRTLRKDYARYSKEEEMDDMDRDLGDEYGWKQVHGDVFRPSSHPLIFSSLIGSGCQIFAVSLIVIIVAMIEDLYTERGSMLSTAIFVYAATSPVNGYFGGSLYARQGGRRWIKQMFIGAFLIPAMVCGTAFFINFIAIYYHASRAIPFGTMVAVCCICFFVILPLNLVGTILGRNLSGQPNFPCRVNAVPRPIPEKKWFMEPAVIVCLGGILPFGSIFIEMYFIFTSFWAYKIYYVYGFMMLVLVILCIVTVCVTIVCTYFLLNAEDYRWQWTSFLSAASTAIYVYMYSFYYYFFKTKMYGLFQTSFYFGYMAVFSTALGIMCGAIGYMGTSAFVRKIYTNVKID
UniProt Q8TDI8: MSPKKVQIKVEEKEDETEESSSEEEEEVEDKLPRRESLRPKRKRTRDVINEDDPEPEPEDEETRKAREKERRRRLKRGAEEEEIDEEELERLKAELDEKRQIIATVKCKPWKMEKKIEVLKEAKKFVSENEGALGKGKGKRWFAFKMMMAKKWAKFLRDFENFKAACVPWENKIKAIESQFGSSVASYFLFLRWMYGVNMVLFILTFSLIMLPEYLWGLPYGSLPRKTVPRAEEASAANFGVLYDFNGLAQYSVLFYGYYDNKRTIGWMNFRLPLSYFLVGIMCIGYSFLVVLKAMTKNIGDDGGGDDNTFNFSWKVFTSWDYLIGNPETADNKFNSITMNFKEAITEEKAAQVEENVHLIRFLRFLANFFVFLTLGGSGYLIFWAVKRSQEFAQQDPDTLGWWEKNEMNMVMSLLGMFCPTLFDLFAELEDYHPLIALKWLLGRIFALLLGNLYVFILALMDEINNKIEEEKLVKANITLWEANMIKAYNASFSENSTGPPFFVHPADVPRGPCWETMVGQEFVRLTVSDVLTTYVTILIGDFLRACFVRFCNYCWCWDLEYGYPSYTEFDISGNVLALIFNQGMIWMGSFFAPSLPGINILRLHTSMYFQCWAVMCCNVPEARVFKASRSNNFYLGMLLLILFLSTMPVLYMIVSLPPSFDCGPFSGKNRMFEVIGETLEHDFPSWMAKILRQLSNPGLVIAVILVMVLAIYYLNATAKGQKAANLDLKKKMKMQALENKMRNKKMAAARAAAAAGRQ
UniProt Q9NX00: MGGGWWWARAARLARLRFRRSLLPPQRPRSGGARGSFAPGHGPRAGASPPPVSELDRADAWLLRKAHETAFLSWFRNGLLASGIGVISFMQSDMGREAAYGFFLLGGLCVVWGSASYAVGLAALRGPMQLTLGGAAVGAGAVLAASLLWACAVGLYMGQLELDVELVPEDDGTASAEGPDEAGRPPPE
UniProt Q9UM00: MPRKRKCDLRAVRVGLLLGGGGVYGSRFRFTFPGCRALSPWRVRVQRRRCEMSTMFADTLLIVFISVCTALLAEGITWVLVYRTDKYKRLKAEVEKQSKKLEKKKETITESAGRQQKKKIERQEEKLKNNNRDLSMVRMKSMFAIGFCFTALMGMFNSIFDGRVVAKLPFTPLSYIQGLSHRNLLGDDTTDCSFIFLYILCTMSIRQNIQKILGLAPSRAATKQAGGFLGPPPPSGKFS
UniProt Q9Y490: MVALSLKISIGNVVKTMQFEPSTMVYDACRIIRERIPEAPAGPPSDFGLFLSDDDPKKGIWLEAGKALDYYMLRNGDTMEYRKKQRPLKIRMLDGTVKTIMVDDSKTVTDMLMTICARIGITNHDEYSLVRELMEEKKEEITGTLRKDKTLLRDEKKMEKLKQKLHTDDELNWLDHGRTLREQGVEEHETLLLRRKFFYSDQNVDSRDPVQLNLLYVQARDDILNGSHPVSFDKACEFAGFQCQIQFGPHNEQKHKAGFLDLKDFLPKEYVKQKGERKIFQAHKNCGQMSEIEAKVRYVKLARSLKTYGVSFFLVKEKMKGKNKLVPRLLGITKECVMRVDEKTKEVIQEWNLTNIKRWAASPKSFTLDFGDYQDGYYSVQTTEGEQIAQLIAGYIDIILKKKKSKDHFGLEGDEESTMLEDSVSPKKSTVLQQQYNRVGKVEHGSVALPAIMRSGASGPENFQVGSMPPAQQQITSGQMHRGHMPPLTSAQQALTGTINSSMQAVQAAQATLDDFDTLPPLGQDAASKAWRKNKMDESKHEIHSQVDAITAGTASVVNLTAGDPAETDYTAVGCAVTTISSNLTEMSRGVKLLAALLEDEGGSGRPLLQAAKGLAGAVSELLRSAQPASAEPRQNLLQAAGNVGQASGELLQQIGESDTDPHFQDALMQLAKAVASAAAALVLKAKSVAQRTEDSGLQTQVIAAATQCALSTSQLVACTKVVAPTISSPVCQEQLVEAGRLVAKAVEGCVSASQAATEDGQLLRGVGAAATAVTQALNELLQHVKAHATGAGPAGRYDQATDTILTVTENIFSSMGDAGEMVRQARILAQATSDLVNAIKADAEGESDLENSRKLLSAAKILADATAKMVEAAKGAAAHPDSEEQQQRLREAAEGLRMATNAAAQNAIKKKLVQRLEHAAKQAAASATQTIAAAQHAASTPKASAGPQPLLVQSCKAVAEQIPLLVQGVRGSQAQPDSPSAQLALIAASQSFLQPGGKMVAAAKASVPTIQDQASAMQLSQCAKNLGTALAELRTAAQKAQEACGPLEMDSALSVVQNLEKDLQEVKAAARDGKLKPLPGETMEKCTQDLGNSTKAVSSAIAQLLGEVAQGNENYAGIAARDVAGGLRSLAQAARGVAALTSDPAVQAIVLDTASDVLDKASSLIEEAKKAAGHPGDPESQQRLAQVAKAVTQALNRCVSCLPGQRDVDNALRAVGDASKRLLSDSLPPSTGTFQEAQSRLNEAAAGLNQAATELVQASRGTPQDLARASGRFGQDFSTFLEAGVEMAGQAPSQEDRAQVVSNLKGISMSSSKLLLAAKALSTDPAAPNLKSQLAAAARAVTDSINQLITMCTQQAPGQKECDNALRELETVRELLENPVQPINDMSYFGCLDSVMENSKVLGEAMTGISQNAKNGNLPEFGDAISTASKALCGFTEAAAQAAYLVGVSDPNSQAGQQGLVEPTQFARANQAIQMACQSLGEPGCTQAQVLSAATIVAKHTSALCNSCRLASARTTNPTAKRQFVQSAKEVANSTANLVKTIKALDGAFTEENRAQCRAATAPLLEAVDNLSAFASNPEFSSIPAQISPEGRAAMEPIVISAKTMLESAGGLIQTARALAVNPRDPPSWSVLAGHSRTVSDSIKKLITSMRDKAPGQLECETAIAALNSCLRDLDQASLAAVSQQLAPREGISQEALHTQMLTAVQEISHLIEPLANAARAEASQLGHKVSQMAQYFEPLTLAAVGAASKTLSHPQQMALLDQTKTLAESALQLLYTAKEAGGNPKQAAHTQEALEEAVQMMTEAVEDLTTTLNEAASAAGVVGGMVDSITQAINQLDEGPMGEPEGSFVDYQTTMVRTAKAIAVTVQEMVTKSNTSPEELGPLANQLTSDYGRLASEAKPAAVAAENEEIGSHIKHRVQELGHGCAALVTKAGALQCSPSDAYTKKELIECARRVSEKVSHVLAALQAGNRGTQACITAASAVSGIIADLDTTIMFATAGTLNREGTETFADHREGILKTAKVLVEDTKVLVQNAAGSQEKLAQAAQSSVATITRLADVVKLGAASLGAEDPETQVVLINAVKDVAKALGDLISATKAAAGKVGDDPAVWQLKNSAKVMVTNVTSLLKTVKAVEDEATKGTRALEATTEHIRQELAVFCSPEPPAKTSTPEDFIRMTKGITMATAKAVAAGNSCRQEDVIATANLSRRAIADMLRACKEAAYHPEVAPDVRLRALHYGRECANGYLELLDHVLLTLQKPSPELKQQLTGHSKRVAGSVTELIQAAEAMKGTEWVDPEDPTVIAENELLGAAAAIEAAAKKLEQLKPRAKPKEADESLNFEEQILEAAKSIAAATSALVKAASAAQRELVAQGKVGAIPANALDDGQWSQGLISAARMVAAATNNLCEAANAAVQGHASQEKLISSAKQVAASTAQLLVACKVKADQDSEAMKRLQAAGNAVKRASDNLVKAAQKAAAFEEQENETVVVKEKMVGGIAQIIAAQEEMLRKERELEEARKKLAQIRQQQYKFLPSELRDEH
UniProt Q9H1E5: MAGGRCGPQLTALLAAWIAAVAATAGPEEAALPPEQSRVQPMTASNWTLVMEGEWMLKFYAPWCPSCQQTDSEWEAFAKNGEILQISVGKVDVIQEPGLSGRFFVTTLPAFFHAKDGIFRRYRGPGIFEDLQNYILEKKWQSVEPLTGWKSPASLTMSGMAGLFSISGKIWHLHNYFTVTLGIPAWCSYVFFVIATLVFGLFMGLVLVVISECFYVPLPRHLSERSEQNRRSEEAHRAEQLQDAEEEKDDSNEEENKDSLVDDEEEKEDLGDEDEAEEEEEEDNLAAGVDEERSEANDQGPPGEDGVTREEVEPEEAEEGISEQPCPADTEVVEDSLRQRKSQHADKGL
UniProt Q5BJF2, whole entry, looked up: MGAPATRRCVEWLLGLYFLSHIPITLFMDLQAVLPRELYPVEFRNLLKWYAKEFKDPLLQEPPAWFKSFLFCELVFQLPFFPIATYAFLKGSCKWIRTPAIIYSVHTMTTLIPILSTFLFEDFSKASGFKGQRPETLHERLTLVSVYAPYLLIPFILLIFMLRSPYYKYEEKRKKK
UniProt Q9BRN9: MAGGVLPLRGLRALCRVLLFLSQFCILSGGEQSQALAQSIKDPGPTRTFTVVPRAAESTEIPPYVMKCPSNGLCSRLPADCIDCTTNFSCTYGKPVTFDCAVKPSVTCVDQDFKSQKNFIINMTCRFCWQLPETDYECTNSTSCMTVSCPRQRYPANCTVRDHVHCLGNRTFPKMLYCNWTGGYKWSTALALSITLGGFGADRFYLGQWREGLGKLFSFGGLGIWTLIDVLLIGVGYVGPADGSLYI
UniProt Q8NBN3: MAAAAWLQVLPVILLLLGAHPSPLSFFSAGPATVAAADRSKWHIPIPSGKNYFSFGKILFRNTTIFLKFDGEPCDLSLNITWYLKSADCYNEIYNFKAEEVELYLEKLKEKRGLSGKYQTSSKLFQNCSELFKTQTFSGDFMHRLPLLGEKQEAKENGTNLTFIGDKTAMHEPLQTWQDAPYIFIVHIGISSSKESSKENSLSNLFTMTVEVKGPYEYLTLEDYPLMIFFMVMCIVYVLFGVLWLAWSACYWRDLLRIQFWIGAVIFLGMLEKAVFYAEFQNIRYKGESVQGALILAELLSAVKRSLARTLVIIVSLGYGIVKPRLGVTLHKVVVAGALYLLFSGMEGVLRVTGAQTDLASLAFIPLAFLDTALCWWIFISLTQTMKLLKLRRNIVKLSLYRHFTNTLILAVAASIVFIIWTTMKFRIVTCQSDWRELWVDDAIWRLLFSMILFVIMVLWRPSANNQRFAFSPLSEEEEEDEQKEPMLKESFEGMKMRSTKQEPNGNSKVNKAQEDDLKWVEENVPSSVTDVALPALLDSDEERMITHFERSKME
UniProt P57088: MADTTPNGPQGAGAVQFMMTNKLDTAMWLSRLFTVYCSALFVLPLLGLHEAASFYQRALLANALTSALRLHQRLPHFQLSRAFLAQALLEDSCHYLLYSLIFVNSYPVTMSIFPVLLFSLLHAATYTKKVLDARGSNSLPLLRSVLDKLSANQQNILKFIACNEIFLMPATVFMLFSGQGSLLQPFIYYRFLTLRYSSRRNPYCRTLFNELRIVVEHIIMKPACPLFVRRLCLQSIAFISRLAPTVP
UniProt P17152: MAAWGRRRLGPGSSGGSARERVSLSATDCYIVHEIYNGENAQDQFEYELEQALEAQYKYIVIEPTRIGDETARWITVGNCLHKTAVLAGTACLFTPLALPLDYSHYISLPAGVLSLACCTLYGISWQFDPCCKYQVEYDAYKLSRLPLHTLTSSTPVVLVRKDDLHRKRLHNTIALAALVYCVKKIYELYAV
UniProt A5PLL7: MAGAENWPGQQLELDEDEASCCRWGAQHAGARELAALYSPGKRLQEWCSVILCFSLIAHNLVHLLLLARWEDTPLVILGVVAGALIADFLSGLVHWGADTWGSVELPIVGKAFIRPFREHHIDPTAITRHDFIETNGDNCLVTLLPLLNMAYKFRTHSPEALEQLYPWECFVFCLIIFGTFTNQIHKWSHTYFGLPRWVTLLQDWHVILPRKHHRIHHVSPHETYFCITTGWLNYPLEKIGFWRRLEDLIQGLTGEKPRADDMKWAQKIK
UniProt P49755: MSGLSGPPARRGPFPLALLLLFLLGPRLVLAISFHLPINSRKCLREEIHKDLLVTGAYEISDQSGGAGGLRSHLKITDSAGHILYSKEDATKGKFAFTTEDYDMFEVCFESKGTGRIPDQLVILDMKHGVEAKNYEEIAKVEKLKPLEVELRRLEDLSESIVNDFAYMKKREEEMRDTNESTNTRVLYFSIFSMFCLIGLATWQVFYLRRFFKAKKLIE

compound: CN(C)CC(=O)Nc1ccc2[nH]c(=O)c3ccccc3c2c1; assay: log2 fold change, soluble protein after heating vs DMSO (PISA); higher = thermal stabilisation; K562 cells, 10 uM, 30 min; active = over 0.2 and 3.5 SD of the protein, either way, in both replicates (recomputed)
Procedure, shortened: (§1)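 Aliquots of K562 cells (2×10^6 cells/mL) treated with 10 μM compound for 30 min were heated for 3 min over 48°C-58°C. After pooling and extraction in PBS with 0.5% NP-40 at 4°C, soluble protein from a 21,000xg, 90 min spin was quantified by TMTpro 16plex LC-MS/MS with channel sums equalised. Thermal stability is expressed against control samples, from duplicates, as a log2 fold change.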

log2 fold change, inactive:
TM9SF3 (UniProt Q9HD45) 0.007
TMA16 (UniProt Q96EY4) -0.158
TMEM167A (UniProt Q8TBQ9) 0.056
TMED2 (UniProt Q15363) -0.008
TMC1 (UniProt Q8TDI8) -0.011
TMEM115 (UniProt Q12893) -0.023
TMEM160 (UniProt Q9NX00) 0.047
TMCO1 (UniProt Q9UM00) 0
TLN1 (UniProt Q9Y490) 0.025
TMA7 (UniProt Q9Y2S6) -0.034
TMX4 (UniProt Q9H1E5) 0.047
TMED1 (UniProt Q13445) -0.031
TMEM245 (UniProt Q9H330) 0.031
TMEM68 (UniProt Q96MH6) 0.058
TMEM199 (UniProt Q8N511) -0.002
TMEM62 (UniProt Q0P6H9) -0.048
TMEM97 (UniProt Q5BJF2) -0.035
TMEM185B (UniProt Q9H7F4) 0.018
TMEM209 (UniProt Q96SK2) 0.008
TMEM63A (UniProt O94886) -0.031
TMEM41B (UniProt Q5BJD5) -0.034
TMX1 (UniProt Q9H3N1) -0.012
TMED3 (UniProt Q9Y3Q3) 0.005
TM2D3 (UniProt Q9BRN9) -0.048
TMEM87A (UniProt Q8NBN3) -0.006
TMPO (UniProt P42167) -0.001
TMSB10 (UniProt P63313) 0.008
TMEM33 (UniProt P57088) 0.055
TMEM65 (UniProt Q6PI78) 0.084
TMED4 (UniProt Q7Z7H5) 0.01
TMLHE isoform 8 (UniProt Q9NVH6) -0.017
TMEM11 (UniProt P17152) 0.034
TMOD1 (UniProt P28289) 0.011
TMOD2 (UniProt Q9NZR1) -0.075
TMEM189 (UniProt A5PLL7) 0.137
TMED10 (UniProt P49755) 0.034
TMUB1 (UniProt Q9BVT8) 0.043
TMOD3 (UniProt Q9NYL9) 0.022

compound: CN(CCOC1=CC=C(C=C1)C[C@H]2C(=O)NC(=O)S2)C3=CC=CC=N3 (racemic) [rosiglitazone]; assay: as above
Procedure, shortened: as §1

log2 fold change, inactive:
TM9SF3 (UniProt Q9HD45) 0.036
TMA16 (UniProt Q96EY4) -0.03
TMEM167A (UniProt Q8TBQ9) -0.035
TMED2 (UniProt Q15363) 0.011
TMC1 (UniProt Q8TDI8) 0.233
TMEM115 (UniProt Q12893) 0.001
TMEM160 (UniProt Q9NX00) -0.047
TMCO1 (UniProt Q9UM00) 0.024
TLN1 (UniProt Q9Y490) 0.034
TMA7 (UniProt Q9Y2S6) -0.02
TMX4 (UniProt Q9H1E5) -0.012
TMED1 (UniProt Q13445) 0.036
TMEM245 (UniProt Q9H330) 0
TMEM68 (UniProt Q96MH6) 0.021
TMEM199 (UniProt Q8N511) 0.004
TMEM62 (UniProt Q0P6H9) 0.033
TMEM97 (UniProt Q5BJF2) 0.017
TMEM185B (UniProt Q9H7F4) 0.007
TMEM209 (UniProt Q96SK2) 0.05
TMEM63A (UniProt O94886) -0.073
TMEM41B (UniProt Q5BJD5) 0.042
TMX1 (UniProt Q9H3N1) -0.003
TMED3 (UniProt Q9Y3Q3) -0.085
TM2D3 (UniProt Q9BRN9) 0.009
TMEM87A (UniProt Q8NBN3) -0.016
TMPO (UniProt P42167) 0.011
TMSB10 (UniProt P63313) 0.019
TMEM33 (UniProt P57088) 0.01
TMEM65 (UniProt Q6PI78) 0.016
TMED4 (UniProt Q7Z7H5) 0.022
TMLHE isoform 8 (UniProt Q9NVH6) 0.027
TMEM11 (UniProt P17152) 0.042
TMOD1 (UniProt P28289) 0.009
TMOD2 (UniProt Q9NZR1) 0.016
TMEM189 (UniProt A5PLL7) 0.013
TMED10 (UniProt P49755) 0.009
TMUB1 (UniProt Q9BVT8) 0.118
TMOD3 (UniProt Q9NYL9) 0.009
